These are yes or no findings as the source states them, for the method shown. A result given as binding can be weak or reduced; the word gives no strength. For some assays here: In cells and extracts the contact can be indirect.
Columns and labels:
His-fused PKM2 = His-fused PKM2 (UniProt P14618); assay: pull-down; Ni-NTA pull-down: bacterially expressed His-tagged PKM2 on Ni-NTA agarose beads with wild type or mutant GST-tagged DDX39B, overnight at 4 °C, washed with 0.1% NP-40 buffer, immunoblot; both purified
FLAG-DDX39B (human) [1] = molecular target: FLAG-DDX39B (human) (UniProt Q13838); assay: co-IP; tandem affinity purification with anti-Flag and anti-HA magnetic beads from lysates of CRC cells cotransfected with Flag-DDX39B and HA-PKM2
GST-fused DDX39B (human) = GST-fused DDX39B (human) (UniProt Q13838); assay: pull-down; GST pull-down: bacterially expressed GST-fused DDX39B on glutathione Sepharose beads with His-fused PKM2, overnight at 4 °C, washed with 0.1% NP-40 buffer, immunoblot; both purified
VN173-DDX39B (human) = VN173-DDX39B (human) (UniProt Q13838); assay: split reporter; BiFC with Venus fragments VN173 and VC155 in HCT116 and SW620 cells
FLAG-DDX39B (human) [2] = molecular target: FLAG-DDX39B (human) (UniProt Q13838); assay: co-IP; CRC cells stably expressing mock, DDX39B^WT or DDX39B^R319A; interaction with PKM2
[3] = molecular target: purified recombinant PKM2 1-219 aa protein (UniProt P14618); assay: in vitro competitive binding analysis; purified proteins; increasing amounts of DDX39B added to PKM2 (WT or 1-219 aa) and STUB1; western blotting; both purified
[4] = molecular target: purified recombinant PKM2 (UniProt P14618); assay: as above

Sequences of proteins named here, by UniProt entry; tags and fusion partners are left off. A change or cut given only in a name is not applied to a line headed by its entry. Residues count along the entry.
UniProt P14618: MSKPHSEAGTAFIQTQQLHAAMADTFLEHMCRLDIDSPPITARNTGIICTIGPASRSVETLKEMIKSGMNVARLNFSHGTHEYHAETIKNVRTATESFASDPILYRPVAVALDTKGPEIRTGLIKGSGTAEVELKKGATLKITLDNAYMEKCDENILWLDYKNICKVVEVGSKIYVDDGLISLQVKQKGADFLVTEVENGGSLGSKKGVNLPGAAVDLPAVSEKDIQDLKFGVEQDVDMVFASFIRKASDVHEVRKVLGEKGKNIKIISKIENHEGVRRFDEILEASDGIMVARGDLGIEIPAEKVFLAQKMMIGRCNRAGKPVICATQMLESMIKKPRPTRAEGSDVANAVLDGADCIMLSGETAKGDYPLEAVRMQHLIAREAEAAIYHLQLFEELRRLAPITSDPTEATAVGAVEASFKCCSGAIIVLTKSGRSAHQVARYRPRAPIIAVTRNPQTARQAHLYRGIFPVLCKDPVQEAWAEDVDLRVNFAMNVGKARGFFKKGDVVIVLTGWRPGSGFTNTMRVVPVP
purified recombinant PKM2 1-219 aa protein: residues 1-219 of P14618
UniProt Q13838: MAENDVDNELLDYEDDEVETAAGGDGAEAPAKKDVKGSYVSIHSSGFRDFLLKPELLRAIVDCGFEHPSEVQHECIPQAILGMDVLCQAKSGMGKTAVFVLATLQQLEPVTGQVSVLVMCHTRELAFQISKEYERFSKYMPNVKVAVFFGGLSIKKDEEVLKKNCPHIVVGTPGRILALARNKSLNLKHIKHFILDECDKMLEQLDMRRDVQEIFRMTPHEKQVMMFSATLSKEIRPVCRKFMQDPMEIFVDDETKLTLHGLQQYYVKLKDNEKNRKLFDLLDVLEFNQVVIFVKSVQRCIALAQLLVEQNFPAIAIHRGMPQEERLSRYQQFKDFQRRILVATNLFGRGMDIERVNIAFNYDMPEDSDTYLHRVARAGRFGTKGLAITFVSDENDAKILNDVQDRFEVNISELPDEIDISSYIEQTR
UniProt P52294: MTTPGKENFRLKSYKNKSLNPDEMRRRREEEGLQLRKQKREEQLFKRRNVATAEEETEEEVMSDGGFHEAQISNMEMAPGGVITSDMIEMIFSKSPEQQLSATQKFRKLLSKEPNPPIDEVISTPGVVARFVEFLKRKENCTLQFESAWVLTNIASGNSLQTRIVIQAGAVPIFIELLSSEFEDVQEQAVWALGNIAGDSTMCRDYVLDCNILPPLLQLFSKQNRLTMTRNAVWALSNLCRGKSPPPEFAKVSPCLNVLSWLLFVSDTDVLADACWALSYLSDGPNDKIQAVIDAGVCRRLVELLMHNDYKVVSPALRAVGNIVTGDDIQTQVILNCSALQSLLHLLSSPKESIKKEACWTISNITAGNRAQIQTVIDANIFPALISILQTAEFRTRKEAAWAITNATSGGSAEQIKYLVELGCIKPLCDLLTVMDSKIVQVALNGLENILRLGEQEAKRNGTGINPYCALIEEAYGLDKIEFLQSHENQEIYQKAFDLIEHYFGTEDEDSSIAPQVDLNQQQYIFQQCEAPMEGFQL

With GST-fused DDX39B (from UniProt Q13838) the binding (His-fused PKM2) was “binds”.
With “HA-PKM2 (full-length) (from UniProt P14618 1-531)” the binding (FLAG-DDX39B (human) [1]) was “binds”.
In the case of “His-fused PKM2 (from UniProt P14618 1-531)”, the binding (GST-fused DDX39B (human)) is reported as “binds”.
For VC155-PKM2 (from UniProt P14618 1-531), the binding (VN173-DDX39B (human)) was “binds”.
For “endogenous PKM2 (from UniProt P14618 1-531)”, the binding (FLAG-DDX39B (human) [2]) was “binds”.
For “importin α5 (in CRC cells) (from UniProt P52294 1-538)”, the binding (FLAG-DDX39B (human) [1]) was “binds”.
“purified DDX39B protein (from UniProt Q13838)” was tested, and the binding [3] was “binds” and the binding [4] was “binds”.
